By AC50 is commonly meant the concentration at which the activity in the assay is half-maximal.

From PubChem BioAssay AID2685 (National Center for Advancing Translational Sciences (NCATS), 2010) come the findings set out here.

This is one part of the list. The main result of the screen is listed elsewhere. These columns were measured beside it and carry no call. Compounds called inactive in the main read-out are mostly missing here. Words in brackets tell the shape of the fitted curve; partial curves, single points and poor fits give uncertain potencies.

The assay can be described thus: qHTS Assay for Lipid Storage Modulators in Drosophila S3 Cells.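 As to cell number change: cells counted by Cell Tracker Red CMTPX staining in the red channel.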 Conditions: BODIPY lipid droplet fluorescence, 18-24 h; for cell number change: measured here: cell count max response, cells fed with added oleic acid. The essentials:
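Drosophila S3 cells got compounds at several concentrations plus oleic acid (400 uM solution). Laser-scanning cytometry with 488 nm excitation read lipid droplets at 500-530 nm and cells at 575-640 nm. Percent activity was relative to 20 uM Triacsin C.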
In general terms: Quantitative high-throughput screening tests each substance at several concentrations.

The mark [1] stands for this setting: measured here: lipid fluorescence (Fed channel) AC50, cells fed with added oleic acid.
The mark [2] stands for this setting: measured here: cell number channel AC50, cells fed with added oleic acid.

On to `CCOc1ccccc1NC(C)C(=O)NC(=O)NC1CCCCC1` (stereo not drawn), for which the cell number change is -1.29%. Besides, the AC50 under setting [1] is 16.4 µM [falling, single point].
Regarding `CC(=O)Nc1ccc(-c2csc(Nc3ccc(S(N)(=O)=O)cc3)n2)cc1`, the cell number change was -22.5%. Moreover, the AC50 under setting [1] was 23.1 µM [falling, single point].
As to `CCn1c(SCC(=O)NC2CC2)nnc1-c1cccs1`, the cell number change was determined as 13.4%. For the same molecule, the AC50 under setting [2] is 0.058 µM [rising, partial curve, poor fit].
Consider `O=C(NCCNC(=O)C1CC2CCC1C2)C1CC2CCC1C2` (stereo not drawn), for which the cell number change was -63.3%. For the same molecule, under setting [2], the AC50 was 11.6 µM [falling, partial curve]. In addition, the AC50 under setting [1] is 4.61 µM [falling, partial curve].
With `Cc1ccc(C(=O)NCc2ccco2)cc1S(=O)(=O)Nc1cccc(C)c1C`, the cell number change is 121%. For the same molecule, the AC50 under setting [2] is 23.1 µM [rising, partial curve, poor fit].
For `O=C(c1ccc2c(c1)C(=O)N(CCCO)C2=O)c1ccc2c(c1)C(=O)N(CCCO)C2=O`, the cell number change is -7.44%. Besides, the AC50 under setting [1] was 29.1 µM [falling, single point].
Regarding `CCCCN(C(=O)c1cccc(-n2cccc2)c1)c1c(N)n(CCC)c(=O)[nH]c1=O`, the cell number change is -10.4%. Further, under setting [1], the AC50 was 29.1 µM [rising, single point].
`COCCn1c(=O)[nH]c2cc(C(=O)Nc3cc(OC)c(OC)c(OC)c3)ccc2c1=O`: the cell number change was found to be 14.5%.
Turning to `COc1ccc(NC(C)=O)cc1NC(=O)CN1CCN(c2ccccn2)CC1`, the cell number change worked out at 38.2%. In addition, the AC50 under setting [2] is 23.1 µM [rising, single point]. Besides, the AC50 under setting [1] was 20.6 µM [rising, single point].
For the molecule `O=C(Nc1ccc2c(c1)OCCO2)c1cccnc1`, the cell number change turned out to be 34.5%.
As to `CN1C(=O)c2ccc(NC(=O)c3cccc4ccccc34)cc2C1=O`, the cell number change came to 4.5%. Further, the AC50 under setting [1] was 29.1 µM [falling, single point].
On to `C/C(Cl)=C\CNC(C)c1ccccc1` (stereo not drawn), for which the cell number change was -21.1%. Moreover, under setting [1], the AC50 was 0.411 µM [falling, full curve, poor fit].
With `Cc1ccc(-c2c3c(=O)n(C)c(=O)n(C)c3cn2Cc2ccccc2)cc1`, the AC50 is, setting by setting: under setting [2], 0.116 µM [falling, full curve, poor fit]; under setting [1], 6.51 µM [falling, partial curve].
On to `O=C(c1ccc(CS(=O)Cc2ccc(Cl)cc2)o1)N1CCN(c2cccc(Cl)c2)CC1` (stereo not drawn), for which the cell number change is 19.1%. Moreover, the AC50 under setting [2] is 3.26 µM [rising, single point].
On to `Cn1c2ccccc2c2cc(C(=O)NNC(=O)CCl)sc21`, for which the cell number change was -1.1%.
In the case of `S=c1[nH]nc(Cc2cccc3ccccc23)n1-c1ccccc1`, the cell number change was 39.4%. Also, the concentration at half-maximal activity (AC50) under setting [2] was 20.6 µM [rising, single point].
Turning to `Cc1cc(C(=O)COc2ccccc2Cl)c(C)n1-c1ccc2c(c1)OCO2`, the cell number change turned out to be 8.22%. In addition, the AC50 under setting [2] is 2.91 µM [rising, partial curve]. Moreover, the AC50 under setting [1] is 2.91 µM [rising, partial curve].
For `CC(=O)N1CCN=C1SCc1ccc(F)cc1`, the cell number change turned out to be 0.466%. The AC50 under setting [1] was 6.51 µM [falling, single point].
Turning to `CCN1CCN(C(=O)Nc2ccc(Cc3ccc(NC(=O)N4CCN(CC)CC4)cc3)cc2)CC1`, the cell number change turned out to be 0.352%. Besides, the AC50 under setting [1] was 14.6 µM [rising, single point].
As to `Cc1cc(C(=O)CN2CCCC2)c(C)n1-c1ccc(Cl)cc1`, the cell number change stood at 24.9%. The AC50 under setting [1] is 0.0058 µM [rising, full curve, poor fit].
Take `COc1ccc(NC(=O)c2cc(-c3ccccc3)on2)cc1`: the cell number change was -2.92%.
For `COc1ccc([C@H]2[C@H](C(C)=O)N3N=Cc4ccccc4C3C23C(=O)OC(C)(C)OC3=O)cc1` (stereo partly drawn), the AC50 was 6.51 µM [rising, partial curve] under setting [2] and 6.51 µM [rising, partial curve, poor fit] under setting [1].
As to `COc1ccc(C)cc1NC(=O)CN(C)S(=O)(=O)c1cccs1`, the cell number change was -7.9%.
Take `O=C(CN1CCN(C(=O)c2ccco2)CC1)Nc1ccc(Cl)c(C(F)(F)F)c1`: the cell number change was -7.73%. In addition, the AC50 under setting [1] is 9.2 µM [rising, partial curve, poor fit].
Consider `CCOC(=O)Cc1nnc(NC(=O)CCc2ccccc2)s1`, for which the cell number change is -13.1%. In addition, under setting [1], the AC50 is 0.0058 µM [falling, full curve, poor fit].
For the molecule `CC1(C)CC(=O)C2=C(C1)NCN(CCCN1CCOCC1)C2`, the cell number change was determined as 0.711%. Further, the AC50 under setting [1] was 0.517 µM [rising, full curve].
On to `COc1ccc(OC)c(S(=O)(=O)N2CCCC(C(=O)NCc3ccncc3)C2)c1` (stereo not drawn), for which the cell number change turned out to be 2.99%. Besides, under setting [1], the AC50 was 0.58 µM [rising, single point].
`O=C(NCCN1CCN(c2ccccc2F)CC1)c1ccc2nc3ccccc3c(=O)n2c1`: the cell number change is -5.56%. Also, the AC50 under setting [1] was 6.51 µM [rising, partial curve, poor fit].
Consider `O=C(NC1CCCC1)c1cccnc1N1CCCCCC1`, for which the cell number change is -39.5%. Further, the AC50 under setting [2] is 0.164 µM [falling, full curve, poor fit].
For the molecule `Cc1cccc(NC(=S)N2CCN(S(C)(=O)=O)CC2)c1`, the cell number change is -3.47%. Further, the AC50 under setting [2] is 6.51 µM [rising, single point]. The AC50 under setting [1] is 11.6 µM [rising, single point].
Regarding `COc1ccc(CCN2C(=S)NC3CC2(C)Oc2ccc([N+](=O)[O-])cc23)cc1OC` (stereo not drawn), the cell number change stood at 127%. The AC50 under setting [2] is 9.2 µM [rising, partial curve]. Moreover, the AC50 under setting [1] was 1.64 µM [rising, partial curve].
With `C/C(=N\NC(=O)Cc1cccn1C)c1ccco1`, the cell number change was determined as 14.6%. The AC50 under setting [1] is 0.651 µM [falling, full curve, poor fit].
As for `CCOC(=O)c1sc(NC(=O)CNCc2ccccn2)c(C(=O)OCC)c1C`, the cell number change amounted to 4.62%. Besides, the AC50 under setting [2] is 0.231 µM [rising, full curve]. Also, the AC50 under setting [1] was 0.259 µM [rising, full curve].
On to `Cc1nc(SCC(=O)Nc2ccc3c(c2)OCO3)c(C#N)c2c1CCCC2`, for which the cell number change is -16.2%. Moreover, under setting [1], the half-maximal activity concentration (AC50) is 1.64 µM [rising, partial curve].
Consider `O=C(Nc1nc(-c2cc(F)ccc2F)cs1)c1ccccn1`, for which the cell number change worked out at 21.3%. For the same molecule, the AC50 under setting [2] is 0.082 µM [rising, full curve, poor fit].
Turning to `Cc1cc(C)c(S(=O)(=O)N2CCCCC2CCNC(=O)C(=O)NC2CC2)c(C)c1` (stereo not drawn), the cell number change came out at 1.17%. Further, the AC50 under setting [1] is 29.1 µM [falling, single point].
Regarding `COc1ccc(O)c(-c2cc(-c3ccc(F)cc3)n[nH]2)c1`, the cell number change is 1.8%. Moreover, the AC50 under setting [1] was 3.66 µM [rising, full curve].
In the case of `CCOC(=O)NC(Nc1ccc(OC)cc1)(C(F)(F)F)C(F)(F)F`, the cell number change is -61.1%. In addition, under setting [2], the AC50 was 0.164 µM [falling, full curve]. The concentration at half-maximal activity (AC50) under setting [1] was 0.13 µM [falling, full curve, poor fit].
